# Experimental data as given in PubChem BioAssay AID445 (National Center for Advancing Translational Sciences (NCATS), 2006).
# Some of the results follow. Shown are side measurements of this screen, not its main read-out; they come without a call. The list favours compounds with an active or inconclusive main result. Potencies come from curve fits of mixed quality, noted in brackets.
# Assay: IkB Signaling
# Conditions: ABC-DLBCL IkBa-CBG/CBR dual luciferase ratio (green luciferase fused to IkBa over red control in OCI-Ly3 lymphoma cells), 4 h
# Procedure, shortened: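 Curves were fitted separately to fusion (green), unfused (red) and ratio luminescence, then classed by r2, magnitude and activity. Cells: OCI-Ly3, 4 h compound plus doxycycline at 37C; 10 uM MG-132 defined full response.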
# [1] = measured here: control luc red channel unless noted
smiles,measurement,setting,value
COc1ccc(-c2nc3c4cnn(-c5ccccc5F)c4ncn3n2)cc1,AC50,[1],"0.1 µM [rising, full curve]"
Cc1ccc(NC(=O)c2oc3ccc(S(=O)(=O)N4CCCCC4)cc3c2C)cc1C,AC50,[1],"3.16 µM [falling, full curve]"
Cc1ccc(C)c2sc(NC(=O)c3ccc(S(=O)(=O)N4CCCC4)cc3)nc12,AC50,[1],"1 µM [falling, full curve]"
CCN1CCN(CCCNC(=O)c2cc3c(=O)n(CC)c4ccccc4c3s2)CC1,AC50,[1],"2 µM [falling, partial curve]"
CC(=O)N1CCOc2cc(S(=O)(=O)NCc3ccc(C)cc3)c(C)cc21,AC50,[1],"0.631 µM [falling, full curve]"
COc1ccc(-c2cc(C(F)(F)F)nc(SCC(=O)N(C)Cc3ccccc3)n2)cc1OC,AC50,[1],"7.94 µM [falling, partial curve]"
COc1cc(O)ccc1C1CC(=O)Nc2c1c(=O)nc(SCc1ccccc1C)n2C (stereo not drawn),AC50,[1],"39.8 µM [falling, single point]"
CCN1c2ccccc2-c2nc(SCC(=O)Nc3cccc(C(F)(F)F)c3)ncc2S1(=O)=O,AC50,[1],"31.6 µM [falling, single point]"
Cc1ccc(C)c(CN2C(=O)c3ccccc3S(=O)c3ccc(C(=O)N4CCC(C)CC4)cc32)c1 (stereo not drawn),AC50,[1],"25.1 µM [falling, partial curve]"
CCOC(=O)c1cccc(NC(=O)c2cc(S(=O)(=O)N3CCCCCC3)cn2C)c1,AC50,[1],"10 µM [falling, partial curve]"
O=c1oc2c3c4c(cc2cc1-c1nc2ccccc2[nH]1)CCCN4CCC3,AC50,measured here: IkB-luc green channel,"12.6 µM [rising, partial curve]"
same,AC50,measured here: control luc red channel,"0.01 µM [falling, full curve]"
CC1CC(C(O)c2ccccn2)C(=O)C(C(O)c2ccccn2)C1 (stereo not drawn),AC50,[1],"3.16 µM [rising, partial curve] [measured here: IkB-luc green channel]"
Cc1cc(C)c2c(=O)n(CC(=O)N3CCC(N4CCCCC4)CC3)sc2n1,AC50,[1],"31.6 µM [falling, single point]"
Cc1ccccc1NS(=O)(=O)c1ccc2[nH]cc(C(=O)NC(C)c3ccccc3)c(=O)c2c1 (stereo not drawn),AC50,[1],"25.1 µM [falling, single point]"
O=C(Nc1ccc(-c2noc(CCc3ccccc3)n2)cc1)c1cccnc1,AC50,[1],"7.94 µM [falling, full curve, poor fit]"
COc1ccccc1CCNC(=O)C(=O)NCC(c1cccs1)S(=O)(=O)c1ccc(C)cc1 (stereo not drawn),AC50,[1],"10 µM [falling, partial curve]"
CCc1ccc(CNC(=O)COc2cc(=O)n(CC)c3ccccc23)cc1,AC50,[1],"39.8 µM [falling, single point]"
CC(=O)N1CCCC1c1nc2ccccc2n1Cc1cccc(Cl)c1 (stereo not drawn),AC50,[1],"1.58 µM [falling, full curve]"
CCC(=O)N1CCN(c2ccccc2NC(=O)COc2cc(C)ccc2C(C)C)CC1,AC50,[1],"12.6 µM [falling, partial curve]"
COc1cc(NC(=O)CC(c2ccc(C)cc2)N2Cc3ccccc3C2=O)cc(OC)c1 (stereo not drawn),AC50,[1],"15.8 µM [falling, single point]"
Cc1ccc(-c2cc(-c3ccc4c(c3)OCO4)c(C#N)c(N)n2)o1,AC50,[1],"31.6 µM [rising, single point] [measured here: IkB-luc green channel]"
CCCN(C(=O)c1cn(C)c(=O)c2ccccc12)c1ccccc1C,AC50,[1],"15.8 µM [falling, partial curve]"
CCOc1ccccc1CN1CCc2nc(N3CCN(c4ccccc4F)CC3)ncc2C1,AC50,[1],"12.6 µM [falling, partial curve]"
CCCOc1ccc(CN(C(=O)c2cc(=O)c3ccc(C)cc3o2)C2CCS(=O)(=O)C2)cc1 (stereo not drawn),AC50,[1],"10 µM [rising, partial curve]"
COc1cc(C)ccc1OCCSc1nc(-c2cccc(C)c2)nc2cc(=O)[nH]n12,AC50,[1],"3.98 µM [falling, full curve]"
O=C(Cc1ccc(S(=O)(=O)N2CCCC2)s1)Nc1nc2c(s1)CCCC2,AC50,[1],"39.8 µM [falling, single point]"
Cc1c(C(=O)NCc2ccco2)oc2ccc(S(=O)(=O)N3CCC4(CC3)OCCO4)cc12,AC50,[1],"12.6 µM [falling, partial curve]"
CCNC(=O)c1ccc2nc(CCc3ccccc3)oc2c1,AC50,[1],"5.01 µM [rising, partial curve]"
Cc1cc(Nc2ccccc2C)nc(-n2nc(C)cc2C)n1,AC50,[1],"5.01 µM [falling, partial curve, poor fit]"
Cc1n[nH]c(C)c1S(=O)(=O)N1CCCC(C(=O)Nc2ccc(Br)cc2)C1 (stereo not drawn),AC50,[1],"15.8 µM [falling, single point]"
COc1ccc(CCNC(=O)c2cc(C)nc3c2c(C)nn3-c2ccc(C)cc2)cc1OC,AC50,[1],"31.6 µM [falling, single point]"
COc1ccc(CCNC(=O)C(=O)NCC(c2cccs2)S(=O)(=O)c2cccs2)cc1 (stereo not drawn),AC50,[1],"39.8 µM [falling, single point]"
COc1ccc(C(=O)n2nc(-c3cccnc3)nc2NCc2ccccc2)cc1OC,AC50,[1],"20 µM [falling, partial curve]"
O=C(CN1CCN(S(=O)(=O)c2ccc(Cl)cc2)CC1)Nc1ccc2c(c1)OCO2,AC50,[1],"15.8 µM [falling, partial curve]"
COc1ccc2nc(SCC(O)c3cccc(Br)c3)[nH]c2c1 (stereo not drawn),AC50,[1],"39.8 µM [falling, single point]"
Cc1ccc(Sc2ccc(N3CCCC(C(=O)Nc4ccc(F)cc4)C3)nn2)cc1 (stereo not drawn),AC50,[1],"10 µM [falling, partial curve]"
Clc1ccc2[nH]c3c(NCC4CCCO4)ncnc3c2c1 (stereo not drawn),AC50,[1],"10 µM [falling, partial curve]"
Cc1nn(-c2ccc(N3CCCCC3)nn2)c(C)c1CCC(=O)NCc1ccccc1,AC50,[1],"6.31 µM [falling, partial curve, poor fit]"
O=C(Cn1nc(N2CCN(c3ccccc3)CC2)ccc1=O)NCc1ccccc1F,AC50,[1],"25.1 µM [falling, partial curve]"
Cc1cccc(C(=O)Nc2ccccc2OCc2cc(=O)n3ccccc3n2)c1,AC50,[1],"25.1 µM [falling, partial curve, poor fit]"
Cc1ccc(-c2nnc(SCC(=O)NC(C)(C)C)nc2-c2ccc(C)cc2)cc1,AC50,[1],"31.6 µM [falling, single point]"
Cn1c(=O)c2c(nc(NCCc3ccccc3)n2Cc2ccccc2Br)n(C)c1=O,AC50,[1],"0.501 µM [rising, full curve, poor fit]"
CCOc1ccc(C(=O)N(Cc2nc(-c3cccc(C)c3)no2)C(C)C)cc1,AC50,[1],"31.6 µM [falling, single point]"
CCOc1cc(S(=O)(=O)NCCc2c(C)[nH]c3ccc(C)cc23)ccc1F,AC50,[1],"31.6 µM [falling, partial curve]"
COc1ccc2c(c1)c(CC(=O)Nc1cc(C)cc(C)c1)c(C)n2C(=O)c1ccc(Cl)cc1,AC50,[1],"7.94 µM [falling, partial curve]"
CCN(CC)C(=O)c1sc2c(c1C)c(=O)n(Cc1ccccc1)c(=O)n2Cc1cc(C)ccc1C,AC50,[1],"25.1 µM [falling, partial curve]"
COc1ccc(C)cc1NC(=O)c1sc2nc(-c3ccc(F)cc3)cn2c1C,AC50,[1],"39.8 µM [rising, single point]"
Cc1ccnc(NC(=O)Nc2cccc(F)c2)c1,AC50,[1],"5.01 µM [falling, partial curve]"
c1ccc(-c2nc(NCc3cccnc3)c3oc4ccccc4c3n2)cc1,AC50,[1],"15.8 µM [falling, partial curve]"
Cc1cc(C)c2oc(C(=O)Nc3ccc(S(=O)(=O)Nc4ncccn4)cc3)cc(=O)c2c1,AC50,[1],"39.8 µM [falling, single point]"
O=C(CCCn1ncn2c(cc3occc32)c1=O)NCc1ccccc1F,AC50,[1],"25.1 µM [falling, single point]"
COc1ccccc1NC(=O)c1sc(-c2ccc(Cl)cc2)cc1N,AC50,[1],"0.2 µM [rising, full curve]"
CCc1ccc2c(c1)NC(c1ccc(F)cc1)=NC(c1ccncc1)=N2,AC50,[1],"15.8 µM [falling, partial curve]"
CCOc1cccc(C(=O)Nc2ccc3oc(-c4ccncc4)nc3c2)c1,AC50,[1],"3.16 µM [falling, full curve]"
COc1cc(OC)c(NS(=O)(=O)c2c(C)nc3sc(C)cn3c2=O)cc1Cl,AC50,[1],"25.1 µM [falling, single point]"
Cc1ccc(-c2noc(-c3cccnc3NCc3ccco3)n2)cc1,AC50,[1],"15.8 µM [falling, single point]"
COc1ccc2c(CNC3CCCCCC3)c(C(=O)O)n(Cc3ccc(C)cc3)c2c1,AC50,[1],"12.6 µM [falling, single point]"
O=C(Cn1cc(SCc2ccc(F)cc2)c2ccccc21)N1CCCCC1,AC50,[1],"25.1 µM [falling, partial curve]"
CCCSc1oc(-c2cccs2)nc1S(=O)(=O)c1ccc(C)cc1,AC50,[1],"3.16 µM [falling, full curve, poor fit]"
COc1ccc(NC(=O)Cn2c(=O)n(CCCCCC(=O)NCc3ccc4c(c3)OCO4)c(=O)c3sccc32)cc1Cl,AC50,[1],"10 µM [falling, partial curve]"
O=C(Nc1cccc(C(=O)OCc2cc(=O)n3c4c(sc3n2)CCCC4)c1)c1ccc(Cl)cc1,AC50,[1],"2 µM [falling, partial curve]"
Cc1ccc(-c2nnn(CC(=O)Nc3cccc4cccnc34)n2)o1,AC50,[1],"25.1 µM [falling, partial curve]"

# Taken from above for reference:
smiles,measurement,setting,value
Cc1ccccc1NS(=O)(=O)c1ccc2[nH]cc(C(=O)NC(C)c3ccccc3)c(=O)c2c1 (stereo not drawn),AC50,[1],"25.1 µM [falling, single point]"
O=C(Nc1ccc(-c2noc(CCc3ccccc3)n2)cc1)c1cccnc1,AC50,[1],"7.94 µM [falling, full curve, poor fit]"
COc1ccccc1CCNC(=O)C(=O)NCC(c1cccs1)S(=O)(=O)c1ccc(C)cc1 (stereo not drawn),AC50,[1],"10 µM [falling, partial curve]"
CCc1ccc(CNC(=O)COc2cc(=O)n(CC)c3ccccc23)cc1,AC50,[1],"39.8 µM [falling, single point]"

# Quoted at random: 2 records from the list.
smiles,measurement,setting,value
CCCOc1ccc(CN(C(=O)c2cc(=O)c3ccc(C)cc3o2)C2CCS(=O)(=O)C2)cc1 (stereo not drawn),AC50,[1],"10 µM [rising, partial curve]"
COc1cc(OC)c(NS(=O)(=O)c2c(C)nc3sc(C)cn3c2=O)cc1Cl,AC50,[1],"25.1 µM [falling, single point]"
